Source: the supplement of paper PMC8256030
The other results are listed elsewhere or left out. This data set is noisy: repeats of one test often differ as much as different tests do.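 HEK293T cells were given each compound shortly before transfection with a reporter in which red mCherry is followed by the SARS-CoV-2 frameshift element and then GFP in the −1 frame, so GFP appears only after frameshifting.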

Experiments:
[1] = test system: SARS-CoV-2 -1 PRF reporter mCherry-FSE-GFP(-1); assay: mCherry (red) intensity as percent of control; higher = higher upstream reporter expression; conditions: 10 µM; 24 h; HEK293T
[2] = test system: SARS-CoV-2 -1 PRF reporter mCherry-FSE-GFP(-1); assay: percent effect, decrease of GFP/mCherry ratio (-1 PRF reporter) relative to controls; higher = stronger frameshift inhibition; conditions: 10 µM; 24 h; HEK293T

Row | Structure (SMILES) | mCherry [1] [%] | percent effect [2] [%]
1 | CC(O)(P(=O)(O)O)P(=O)(O)O [etidronic acid] | 106 | -6.29
2 | Nc1c(CC(=O)O)cccc1C(=O)c1ccc(Br)cc1 [bromfenac] | 96.3 | -3.17
3 | O=C(O)CN(CCN(CC(=O)O)CC(=O)O)CC(=O)O [edetic acid] | 112 | -0.35
4 | CCCCC[C@H](O)/C=C/[C@@H]1c2cc(CCCCC(=O)O)n(-c3ccccc3)c2C[C@H]1O [piriprost] | 103 | -4.84
5 | CCCN[C@H]1CCc2nc(N)sc2C1 [pramipexole] | 90.2 | -3.92
6 | C[C@@H](NCCCc1cccc(C(F)(F)F)c1)c1cccc2ccccc12 [cinacalcet] | 148 | 1.84
7 | CN1C(C(=O)Nc2ccccn2)=C(O)c2ccccc2S1(=O)=O [Piroxicam] | 109 | 2.25
8 | Cc1ccccc1OCC(O)CNCCOc1ccc(C(N)=O)cc1 (stereo unspecified) [tolamolol] | 89.5 | -2.9
9 | COc1ccc(Cl)cc1C(=O)NCCc1ccc(S(=O)(=O)NC(=O)NC2CCCCC2)cc1 [Glyburide] | 94.5 | -6.04
10 | Cc1c(C(N)=O)cc([N+](=O)[O-])cc1[N+](=O)[O-] [dinitolmide] | 90 | 0.749
11 | CCC(C(=O)OCCN(CC)CC)c1ccccc1 (stereo unspecified) [butetamate] | 108 | -1.86
12 | CN1CCCCC1CCN1c2ccccc2Sc2ccc([S+](C)[O-])cc21 (stereo unspecified) [mesoridazine] | 87.8 | 0.904
13 | CO[C@@]1(NC(=O)CSCC#N)C(=O)N2C(C(=O)O)=C(CSc3nnnn3C)CS[C@@H]21 | 141 | -3.87
